Laboratory results taken from the supplement of paper PMC7666118.
Some of the results follow.

The chains behind the UniProt entries cited, without tags or fusion partners. Where a name states a change or a piece, a line headed by the entry shows the natural chain unless it says otherwise.
UniProt Q8WUQ7: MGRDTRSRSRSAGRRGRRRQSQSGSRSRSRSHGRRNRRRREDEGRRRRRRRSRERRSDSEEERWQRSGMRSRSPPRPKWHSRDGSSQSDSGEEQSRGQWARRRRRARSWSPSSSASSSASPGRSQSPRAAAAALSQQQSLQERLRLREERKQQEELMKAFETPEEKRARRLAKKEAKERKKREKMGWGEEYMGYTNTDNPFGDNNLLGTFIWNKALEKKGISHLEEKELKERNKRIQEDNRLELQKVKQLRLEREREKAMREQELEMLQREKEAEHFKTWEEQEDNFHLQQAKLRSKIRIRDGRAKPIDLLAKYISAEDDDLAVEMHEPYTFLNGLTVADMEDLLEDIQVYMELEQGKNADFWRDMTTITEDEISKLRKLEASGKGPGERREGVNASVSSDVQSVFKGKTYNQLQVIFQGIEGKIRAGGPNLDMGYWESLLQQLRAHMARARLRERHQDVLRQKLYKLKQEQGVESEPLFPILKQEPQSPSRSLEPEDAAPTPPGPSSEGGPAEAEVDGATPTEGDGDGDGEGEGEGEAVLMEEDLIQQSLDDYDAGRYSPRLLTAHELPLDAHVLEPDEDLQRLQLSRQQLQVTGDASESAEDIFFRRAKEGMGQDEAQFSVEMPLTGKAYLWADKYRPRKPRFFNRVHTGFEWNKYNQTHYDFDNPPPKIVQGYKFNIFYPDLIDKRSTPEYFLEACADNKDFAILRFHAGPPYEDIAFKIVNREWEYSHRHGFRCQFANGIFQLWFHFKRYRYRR
UniProt Q8IYL3: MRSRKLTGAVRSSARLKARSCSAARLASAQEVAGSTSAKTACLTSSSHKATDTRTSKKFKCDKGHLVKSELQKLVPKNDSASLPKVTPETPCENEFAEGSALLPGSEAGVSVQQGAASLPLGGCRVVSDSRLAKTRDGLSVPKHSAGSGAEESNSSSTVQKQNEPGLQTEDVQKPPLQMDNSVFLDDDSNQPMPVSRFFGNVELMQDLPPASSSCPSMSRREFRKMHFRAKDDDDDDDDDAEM
UniProt Q5T0F9: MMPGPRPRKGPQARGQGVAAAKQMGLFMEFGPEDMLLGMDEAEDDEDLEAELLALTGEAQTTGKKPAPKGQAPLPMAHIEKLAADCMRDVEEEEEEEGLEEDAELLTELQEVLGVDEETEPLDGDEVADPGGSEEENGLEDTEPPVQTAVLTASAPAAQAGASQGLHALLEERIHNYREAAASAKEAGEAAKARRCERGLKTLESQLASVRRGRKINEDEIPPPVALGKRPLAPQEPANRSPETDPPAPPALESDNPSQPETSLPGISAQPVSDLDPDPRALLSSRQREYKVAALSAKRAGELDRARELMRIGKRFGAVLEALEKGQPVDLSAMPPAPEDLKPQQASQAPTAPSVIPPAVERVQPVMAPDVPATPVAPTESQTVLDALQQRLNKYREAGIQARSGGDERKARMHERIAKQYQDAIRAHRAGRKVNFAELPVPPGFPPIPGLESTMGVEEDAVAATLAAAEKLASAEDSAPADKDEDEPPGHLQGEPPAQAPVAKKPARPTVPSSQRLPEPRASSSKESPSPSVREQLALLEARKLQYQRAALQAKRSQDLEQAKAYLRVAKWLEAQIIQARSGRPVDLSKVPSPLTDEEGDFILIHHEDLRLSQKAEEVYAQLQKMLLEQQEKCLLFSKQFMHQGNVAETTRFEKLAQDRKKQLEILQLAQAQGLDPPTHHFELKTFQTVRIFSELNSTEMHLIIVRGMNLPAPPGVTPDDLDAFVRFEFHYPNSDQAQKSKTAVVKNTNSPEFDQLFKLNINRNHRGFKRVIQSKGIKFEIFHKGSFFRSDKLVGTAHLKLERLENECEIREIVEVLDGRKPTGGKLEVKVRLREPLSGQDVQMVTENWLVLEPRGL
UniProt P04040: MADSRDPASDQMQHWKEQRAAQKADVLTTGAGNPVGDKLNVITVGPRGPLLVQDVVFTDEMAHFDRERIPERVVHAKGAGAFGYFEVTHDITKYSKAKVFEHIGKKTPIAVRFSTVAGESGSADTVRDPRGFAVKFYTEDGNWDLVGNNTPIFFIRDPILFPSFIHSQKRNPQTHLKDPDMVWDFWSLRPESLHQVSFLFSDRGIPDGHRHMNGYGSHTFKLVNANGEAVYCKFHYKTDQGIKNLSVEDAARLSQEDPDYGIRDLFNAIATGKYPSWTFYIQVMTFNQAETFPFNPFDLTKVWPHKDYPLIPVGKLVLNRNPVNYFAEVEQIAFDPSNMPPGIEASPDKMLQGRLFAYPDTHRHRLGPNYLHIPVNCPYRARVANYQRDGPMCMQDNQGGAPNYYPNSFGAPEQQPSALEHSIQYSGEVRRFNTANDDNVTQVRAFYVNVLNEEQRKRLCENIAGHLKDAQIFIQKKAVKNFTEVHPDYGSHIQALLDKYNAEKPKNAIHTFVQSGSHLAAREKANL
UniProt A2RUC4: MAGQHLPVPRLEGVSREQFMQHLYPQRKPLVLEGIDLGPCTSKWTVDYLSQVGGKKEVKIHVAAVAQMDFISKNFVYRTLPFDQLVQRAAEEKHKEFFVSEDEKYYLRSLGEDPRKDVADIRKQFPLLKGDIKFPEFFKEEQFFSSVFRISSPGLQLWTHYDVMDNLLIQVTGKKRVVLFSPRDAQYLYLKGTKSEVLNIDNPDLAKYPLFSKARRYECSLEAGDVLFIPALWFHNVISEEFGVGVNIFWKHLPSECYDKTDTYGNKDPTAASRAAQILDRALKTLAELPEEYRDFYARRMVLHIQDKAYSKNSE
UniProt Q9Y312: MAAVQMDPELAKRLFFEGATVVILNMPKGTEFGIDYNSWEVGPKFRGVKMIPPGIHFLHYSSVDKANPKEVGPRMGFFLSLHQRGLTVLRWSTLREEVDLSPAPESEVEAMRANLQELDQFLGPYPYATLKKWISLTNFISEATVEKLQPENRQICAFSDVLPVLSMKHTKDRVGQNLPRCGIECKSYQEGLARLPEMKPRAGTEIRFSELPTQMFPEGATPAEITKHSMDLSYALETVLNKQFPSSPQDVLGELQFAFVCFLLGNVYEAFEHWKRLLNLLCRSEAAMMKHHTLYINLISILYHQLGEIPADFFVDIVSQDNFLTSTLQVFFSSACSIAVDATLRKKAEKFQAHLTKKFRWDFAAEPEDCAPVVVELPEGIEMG
UniProt P42574: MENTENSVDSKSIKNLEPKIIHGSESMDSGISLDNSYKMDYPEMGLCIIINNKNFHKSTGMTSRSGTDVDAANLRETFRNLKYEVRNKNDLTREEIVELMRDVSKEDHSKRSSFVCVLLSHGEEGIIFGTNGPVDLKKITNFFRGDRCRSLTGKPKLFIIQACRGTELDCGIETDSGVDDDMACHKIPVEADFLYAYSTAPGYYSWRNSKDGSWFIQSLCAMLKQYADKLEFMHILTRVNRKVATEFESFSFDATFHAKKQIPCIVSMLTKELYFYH
UniProt Q9NU53: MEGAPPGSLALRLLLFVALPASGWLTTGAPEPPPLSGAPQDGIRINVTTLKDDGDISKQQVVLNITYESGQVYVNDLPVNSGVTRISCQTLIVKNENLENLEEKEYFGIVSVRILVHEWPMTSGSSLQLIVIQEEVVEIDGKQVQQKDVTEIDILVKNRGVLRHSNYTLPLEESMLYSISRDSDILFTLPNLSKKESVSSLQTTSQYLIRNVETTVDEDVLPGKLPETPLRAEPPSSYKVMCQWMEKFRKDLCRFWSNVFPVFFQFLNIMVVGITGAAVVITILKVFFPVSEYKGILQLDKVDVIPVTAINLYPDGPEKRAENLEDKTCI
UniProt Q8NDZ2: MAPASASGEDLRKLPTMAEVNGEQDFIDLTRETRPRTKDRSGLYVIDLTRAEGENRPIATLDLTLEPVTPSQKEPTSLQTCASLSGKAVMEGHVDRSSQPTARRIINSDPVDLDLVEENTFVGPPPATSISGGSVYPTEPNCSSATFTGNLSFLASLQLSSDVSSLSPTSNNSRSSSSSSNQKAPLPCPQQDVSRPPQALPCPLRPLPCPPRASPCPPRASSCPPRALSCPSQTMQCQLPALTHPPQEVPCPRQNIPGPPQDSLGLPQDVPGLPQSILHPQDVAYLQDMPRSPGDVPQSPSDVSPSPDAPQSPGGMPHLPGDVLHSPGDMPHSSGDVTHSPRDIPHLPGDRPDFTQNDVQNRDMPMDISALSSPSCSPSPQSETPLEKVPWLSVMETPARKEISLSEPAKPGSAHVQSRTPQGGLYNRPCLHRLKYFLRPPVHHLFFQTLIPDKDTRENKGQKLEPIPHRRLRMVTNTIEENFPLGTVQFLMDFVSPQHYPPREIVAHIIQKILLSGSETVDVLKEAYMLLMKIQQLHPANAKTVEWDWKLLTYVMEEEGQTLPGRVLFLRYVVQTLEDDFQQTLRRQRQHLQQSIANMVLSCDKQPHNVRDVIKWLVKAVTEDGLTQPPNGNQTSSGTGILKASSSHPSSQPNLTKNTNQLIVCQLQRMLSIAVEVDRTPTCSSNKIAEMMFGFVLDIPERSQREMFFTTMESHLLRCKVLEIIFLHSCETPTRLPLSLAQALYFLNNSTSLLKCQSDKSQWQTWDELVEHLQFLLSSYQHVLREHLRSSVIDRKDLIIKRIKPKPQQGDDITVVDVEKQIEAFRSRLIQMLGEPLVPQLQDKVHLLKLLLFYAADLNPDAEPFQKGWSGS
UniProt Q9NUS5: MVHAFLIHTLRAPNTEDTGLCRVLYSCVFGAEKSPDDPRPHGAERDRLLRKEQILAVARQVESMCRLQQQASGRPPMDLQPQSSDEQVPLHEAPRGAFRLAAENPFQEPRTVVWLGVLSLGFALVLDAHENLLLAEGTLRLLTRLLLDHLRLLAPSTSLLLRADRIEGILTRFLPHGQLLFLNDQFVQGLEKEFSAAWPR
UniProt Q9BWL3: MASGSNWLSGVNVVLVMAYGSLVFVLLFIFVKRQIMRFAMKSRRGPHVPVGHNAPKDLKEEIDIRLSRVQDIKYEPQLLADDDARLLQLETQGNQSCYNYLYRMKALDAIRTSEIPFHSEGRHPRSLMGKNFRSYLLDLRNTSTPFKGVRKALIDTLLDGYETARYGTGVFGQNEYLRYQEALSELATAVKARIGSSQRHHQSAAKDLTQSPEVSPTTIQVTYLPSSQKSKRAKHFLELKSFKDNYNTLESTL
UniProt Q9P032: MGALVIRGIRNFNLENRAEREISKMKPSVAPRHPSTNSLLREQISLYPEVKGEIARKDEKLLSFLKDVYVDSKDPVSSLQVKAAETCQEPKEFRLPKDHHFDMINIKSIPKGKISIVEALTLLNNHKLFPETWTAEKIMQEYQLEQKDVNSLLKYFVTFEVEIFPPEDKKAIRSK
UniProt Q7Z2T5: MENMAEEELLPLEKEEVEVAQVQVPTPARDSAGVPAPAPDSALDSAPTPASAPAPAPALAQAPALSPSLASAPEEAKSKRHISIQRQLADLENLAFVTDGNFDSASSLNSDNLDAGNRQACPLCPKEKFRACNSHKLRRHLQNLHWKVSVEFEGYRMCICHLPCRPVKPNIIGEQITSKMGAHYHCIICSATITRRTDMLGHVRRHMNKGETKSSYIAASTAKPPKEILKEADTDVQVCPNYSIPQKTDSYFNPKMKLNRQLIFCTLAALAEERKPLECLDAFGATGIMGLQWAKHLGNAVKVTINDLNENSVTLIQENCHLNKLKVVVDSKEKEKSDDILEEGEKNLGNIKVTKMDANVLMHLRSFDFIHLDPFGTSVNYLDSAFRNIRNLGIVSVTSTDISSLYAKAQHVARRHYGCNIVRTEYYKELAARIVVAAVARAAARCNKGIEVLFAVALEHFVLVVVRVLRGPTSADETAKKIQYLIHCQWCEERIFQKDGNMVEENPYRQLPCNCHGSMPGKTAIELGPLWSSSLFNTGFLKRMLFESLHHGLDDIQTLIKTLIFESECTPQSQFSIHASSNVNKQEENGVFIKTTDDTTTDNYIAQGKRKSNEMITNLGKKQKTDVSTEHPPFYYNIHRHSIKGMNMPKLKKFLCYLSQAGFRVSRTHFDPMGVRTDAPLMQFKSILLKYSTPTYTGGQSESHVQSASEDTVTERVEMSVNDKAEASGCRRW
UniProt Q96GQ5: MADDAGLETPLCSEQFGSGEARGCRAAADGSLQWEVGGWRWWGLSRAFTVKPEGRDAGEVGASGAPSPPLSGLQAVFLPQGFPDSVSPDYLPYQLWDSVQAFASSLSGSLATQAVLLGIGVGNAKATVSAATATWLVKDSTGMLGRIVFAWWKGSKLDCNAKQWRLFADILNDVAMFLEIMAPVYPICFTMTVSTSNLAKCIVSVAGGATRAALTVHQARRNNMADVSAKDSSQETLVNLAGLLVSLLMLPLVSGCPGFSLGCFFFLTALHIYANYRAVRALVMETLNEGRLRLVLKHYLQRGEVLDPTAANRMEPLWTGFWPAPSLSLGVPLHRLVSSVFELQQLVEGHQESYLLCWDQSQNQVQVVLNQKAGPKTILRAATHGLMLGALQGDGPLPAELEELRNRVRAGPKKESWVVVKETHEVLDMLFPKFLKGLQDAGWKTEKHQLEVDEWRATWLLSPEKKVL
UniProt Q6NVV7: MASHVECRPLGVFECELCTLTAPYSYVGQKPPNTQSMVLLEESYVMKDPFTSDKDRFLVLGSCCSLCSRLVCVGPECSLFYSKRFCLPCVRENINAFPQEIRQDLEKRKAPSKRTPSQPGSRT

Compound: COc1ccc(Cn2ccc3ccc(C(=O)NO)cc32)cc1
Assay: dose-dependent thermal stabilisation call (2D-TPP, DLPTP, 10% FDR) (binary (1 = stabilised)); higher = stabilised by the compound
Details: system: HL-60 intact cells; concentration range 0.04-10 µM

## C19ORF29 (UniProt Q8WUQ7)
  dose-dependent thermal stabilisation call: inactive: 0

## C8ORF30A (UniProt Q9BTY7)
  dose-dependent thermal stabilisation call: inactive: 0

## CBX5 (UniProt P45973)
  dose-dependent thermal stabilisation call: inactive: 0

## CASP7 (UniProt P55210)
  dose-dependent thermal stabilisation call: inactive: 0

## C1ORF174 (UniProt Q8IYL3)
  dose-dependent thermal stabilisation call: inactive: 0

## CC2D1B (UniProt Q5T0F9)
  dose-dependent thermal stabilisation call: inactive: 0

## C16ORF14 (UniProt Q9BUT9)
  dose-dependent thermal stabilisation call: inactive: 0

## CAT (UniProt P04040)
  dose-dependent thermal stabilisation call: inactive: 0

## C2ORF60 (UniProt A2RUC4)
  dose-dependent thermal stabilisation call: inactive: 0

## C20ORF4 (UniProt Q9Y312)
  dose-dependent thermal stabilisation call: inactive: 0

## CASP3 (UniProt P42574)
  dose-dependent thermal stabilisation call: inactive: 0

## C16ORF35 (UniProt Q12980)
  dose-dependent thermal stabilisation call: inactive: 0

## C17ORF49 (UniProt Q8IXM2)
  dose-dependent thermal stabilisation call: inactive: 0

## C15ORF23 (UniProt Q9Y448)
  dose-dependent thermal stabilisation call: inactive: 0

## CAND1 (UniProt Q86VP6)
  dose-dependent thermal stabilisation call: inactive: 0

## C6ORF72 (UniProt Q9NU53)
  dose-dependent thermal stabilisation call: inactive: 0

## C9ORF46 (UniProt Q9HBL7)
  dose-dependent thermal stabilisation call: inactive: 0

## C5ORF25 (UniProt Q8NDZ2)
  dose-dependent thermal stabilisation call: inactive: 0

## C1ORF31 (UniProt Q5JTJ3)
  dose-dependent thermal stabilisation call: inactive: 0

## C20ORF29 (UniProt Q9NUS5)
  dose-dependent thermal stabilisation call: inactive: 0

## C1ORF43 (UniProt Q9BWL3)
  dose-dependent thermal stabilisation call: inactive: 0

## C13ORF34 (UniProt Q6PGQ7)
  dose-dependent thermal stabilisation call: inactive: 0

## C14ORF156 (UniProt Q9GZT3)
  dose-dependent thermal stabilisation call: inactive: 0

## C9ORF78 (UniProt Q9NZ63)
  dose-dependent thermal stabilisation call: inactive: 0

## CAPG (UniProt P40121)
  dose-dependent thermal stabilisation call: inactive: 0

## CAPZA1 (UniProt P52907)
  dose-dependent thermal stabilisation call: inactive: 0

## CALM1 (UniProt P0DP23)
  dose-dependent thermal stabilisation call: inactive: 0

## C6ORF66 (UniProt Q9P032)
  dose-dependent thermal stabilisation call: inactive: 0

## C1ORF25 (UniProt Q7Z2T5)
  dose-dependent thermal stabilisation call: inactive: 0

## C22ORF9 (UniProt Q6ICG6)
  dose-dependent thermal stabilisation call: inactive: 0

## CC2D1A (UniProt Q6P1N0)
  dose-dependent thermal stabilisation call: inactive: 0

## C5ORF33 (UniProt Q4G0N4)
  dose-dependent thermal stabilisation call: inactive: 0

## C16ORF58 (UniProt Q96GQ5)
  dose-dependent thermal stabilisation call: inactive: 0

## C16ORF84 (UniProt Q2VPK5)
  dose-dependent thermal stabilisation call: inactive: 0

## C5ORF24 (UniProt Q7Z6I8)
  dose-dependent thermal stabilisation call: inactive: 0

## C22ORF40 (UniProt Q6NVV7)
  dose-dependent thermal stabilisation call: inactive: 0

## CAB39 (UniProt Q9Y376)
  dose-dependent thermal stabilisation call: inactive: 0
